# Source: the supplement of paper PMC12889115
# The list shows a part of the results. These are raw signals, not scaled to a control.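 In the initial screen, polymyxin B was used at a concentration that permeabilizes Salmonella's outer membrane but not its inner membrane. Maximum growth was set by DMSO wells with or without polymyxin B. Since plates varied, data were ranked per plate, and compounds giving the lowest OD600 advanced as hits.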
# Tested on: Salmonella enterica serovar Typhimurium SL1344
# Test: bacterial growth OD600 after 18 h with compound and polymyxin B; higher = more bacterial growth (less inhibition)
# Conditions: 50 µM, Mueller-Hinton broth
Compound,bacterial growth OD600 (polymyxin B 1 µg/mL),bacterial growth OD600 (polymyxin B 0.75 µg/mL)
O=C1CCCN1CCCN1CC(C(=O)N2CCN(CC3CCCC3)CC2)CCC1=O (centres undefined),0.815,
COCCC(=O)N1CCC(Oc2ccc(C(=O)NCCc3ncccc3C)cc2)CC1,1.01,
O=C(C1CCC(=O)N(C2CCCCCC2)C1)N1CCN(C2CCCC2)C(=O)C1 (centres undefined),1.19,
COc1ccc(-n2ncc(C(C)NS(=O)(=O)c3cccc4cccnc34)c2C)cc1 (centres undefined),0.677,
CCOC(=O)C1(CCCc2ccccc2)CCN(C(=O)c2cnsn2)CC1,0.714,
O=C(CCc1ccsc1)N1CCOC(Cc2ccccc2)C1 (centres undefined),,0.858
O=C(NCC1Cc2cc(F)cc(-c3ccccn3)c2O1)c1cc(F)ccc1F (centres undefined),,0.007
OCC1(Cc2ccc(F)cc2)CCCN(Cc2cccn2-c2ncccn2)C1 (centres undefined),,0.816
O=C(CN1CC(c2ccccc2)CC1=O)NCCN1Cc2ccccc2OC(c2ccccc2F)C1 (centres undefined),,0.007
